Data published in paper doi:10.1101/495432.
No constants are given. Whether binding was seen depends on the method and setting. In cells and extracts the contact can be indirect. Some results given as binding are weak or reduced against the parent protein; the word gives no strength. For some assays here: Where a sequence is shown, tags or fusion partners need not be part of it. Values belong to the binder of their own block, whether it stands above or below them.

Tests used:
Test in all cases: co-IP
[1] = molecular target: T1, CTCF, endogenously dual-tagged in mESC clone C62 (one allele 3xFLAG-Halo-CTCF, the other allele V5-SNAPf-CTCF) (mouse), Q61164; conditions: remark: other sources report otherwise
T1 chain: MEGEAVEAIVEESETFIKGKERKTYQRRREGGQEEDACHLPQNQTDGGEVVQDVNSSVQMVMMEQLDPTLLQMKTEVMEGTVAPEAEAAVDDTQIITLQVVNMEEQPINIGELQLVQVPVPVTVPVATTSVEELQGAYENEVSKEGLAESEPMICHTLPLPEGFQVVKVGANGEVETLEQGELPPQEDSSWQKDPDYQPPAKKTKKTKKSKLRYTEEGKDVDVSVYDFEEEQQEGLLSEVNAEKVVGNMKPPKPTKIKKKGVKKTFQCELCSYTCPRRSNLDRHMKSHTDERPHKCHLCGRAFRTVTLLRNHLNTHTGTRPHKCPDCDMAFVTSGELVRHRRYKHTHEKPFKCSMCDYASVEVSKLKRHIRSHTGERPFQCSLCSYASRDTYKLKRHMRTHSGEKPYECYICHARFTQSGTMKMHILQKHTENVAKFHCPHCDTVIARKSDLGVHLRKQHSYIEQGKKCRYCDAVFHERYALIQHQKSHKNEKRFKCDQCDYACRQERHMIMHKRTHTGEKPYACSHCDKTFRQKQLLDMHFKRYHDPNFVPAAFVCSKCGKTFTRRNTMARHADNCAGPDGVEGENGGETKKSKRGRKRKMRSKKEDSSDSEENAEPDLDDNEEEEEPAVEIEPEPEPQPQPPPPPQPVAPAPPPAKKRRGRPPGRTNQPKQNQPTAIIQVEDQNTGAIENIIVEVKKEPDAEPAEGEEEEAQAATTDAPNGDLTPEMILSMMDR

[2] = molecular target: T2, Halo-wt CTCF (mESC clone C59) (mouse) (UniProt Q61164)
T2 sequence: T1 chain

[3] = molecular target: T3, Halo-ΔRBR CTCF (mESC clone C59D2 ΔRBR) (mouse) (UniProt Q61164)
T3 sequence: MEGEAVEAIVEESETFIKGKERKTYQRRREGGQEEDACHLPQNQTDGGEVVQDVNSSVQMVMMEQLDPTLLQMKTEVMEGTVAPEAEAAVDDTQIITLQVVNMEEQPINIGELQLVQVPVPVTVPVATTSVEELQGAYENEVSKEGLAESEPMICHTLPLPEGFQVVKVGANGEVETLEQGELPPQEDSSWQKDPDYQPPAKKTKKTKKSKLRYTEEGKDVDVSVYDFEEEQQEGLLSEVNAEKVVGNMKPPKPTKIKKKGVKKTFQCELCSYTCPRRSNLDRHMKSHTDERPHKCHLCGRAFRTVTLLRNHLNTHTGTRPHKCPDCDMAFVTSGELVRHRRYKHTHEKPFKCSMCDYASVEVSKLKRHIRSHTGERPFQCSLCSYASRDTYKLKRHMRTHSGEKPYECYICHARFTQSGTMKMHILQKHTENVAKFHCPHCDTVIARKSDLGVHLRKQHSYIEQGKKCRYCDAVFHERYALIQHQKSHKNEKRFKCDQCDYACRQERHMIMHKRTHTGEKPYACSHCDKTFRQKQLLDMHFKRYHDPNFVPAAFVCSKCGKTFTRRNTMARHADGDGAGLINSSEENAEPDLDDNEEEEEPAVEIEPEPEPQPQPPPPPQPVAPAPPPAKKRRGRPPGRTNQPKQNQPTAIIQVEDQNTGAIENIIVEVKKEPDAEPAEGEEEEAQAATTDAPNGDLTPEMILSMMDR

binding [1]: binds
B1: CTCF, endogenously dual-tagged in mESC clone C62 (one allele 3xFLAG-Halo-CTCF, the other allele V5-SNAPf-CTCF), Q61164 1-736 (protein)
chain: T1 chain

binding [2]: binds | binding [3]: binds
B2: Rad21 (cohesin subunit) (protein, UniProt Q61550)
chain: MFYAHFVLSKRGPLAKIWLAAHWDKKLTKAHVFECNLESSVESIISPKVKMALRTSGHLLLGVVRIYHRKAKYLLADCNEAFIKIKMAFRPGVVDLPEENREAAYNAITLPEEFHDFDQPLPDLDDIDVAQQFSLNQSRVEEITMREEVGNISILQENDFGDFGMDDREIMREGSAFEDDDMLVSTSASNLLLEPEQSTSNLNEKMNHLEYEDQYKDDNFGEGNDGGILDDKLISNNDGGIFDDPPALSEAGVMLPEQPAHDDMDEDDNGSLGGPDSPDSVDPVEPMPTMTDQTTLVPNEEEAFALEPIDITVKETKAKRKRKLIVDSVKELDSKTIRAQLSDYSDIVTTLDLAPPTKKLMMWKETGGVEKLFFLPAQPLWNNRLLKLFTRCLTPLVPEDLRKRRKGGEADNLDEFLKEFENPEVPREEQQPQQQQPQPQRDVIDEPIIEEPSRLQDSVMEASRTTIEESAMPPPPPQGVKRKAGQIDPEPSIPPQQVEQMEIPPVELPPEEPPNICQLIPELELLPEKEKEKEKEKEEEEEEEDEDASGGDQDQEERRWNKRTQQMLHGLQRALAKTGAESISLLELCRNTNRKQAAAKFYSFLVLKKQQAIELTQEEPYSDIIATPGPRFHII

binding [2]: binds | binding [3]: binds
B3: Smc1a (cohesin subunit) (protein, UniProt Q9CU62 1-1233)
chain: MGFLKLIEIENFKSYKGRQIIGPFQRFTAIIGPNGSGKSNLMDAISFVLGEKTSNLRVKTLRDLIHGAPVGKPAANRAFVSMVYSEEGAEDRTFARVIVGGSSEYKINNKVVQLHEYSEELEKLGILIKARNFLVFQGAVESIAMKNPKERTALFEEISRSGELAQEYDKRKKEMVKAEEDTQFNYHRKKNIAAERKEAKQEKEEADRYQRLKDEVVRAQVQLQLFKLYHNEVEIEKLNKELASKNKEIEKDKKRMDKVEDELKEKKKELGKMMREQQQIEKEIKEKDSELNQKRPQYIKAKENTSHKIKKLEAAKKSLQNAQKHYKKRKGDMDELEKEMLSVEKARQEFEERMEEESQSQGRDLTLEENQVKKYHRLKEEASKRAATLAQELEKFNRDQKADQDRLDLEERKKVETEAKIKQKLREIEENQKRIEKLEEYITTSKQSLEEQKKLEGELTEEVEMAKRRIDEINKELNQVMEQLGDARIDRQESSRQQRKAEIMESIKRLYPGSVYGRLIDLCQPTQKKYQIAVTKVLGKNMDAIIVDSEKTGRDCIQYIKEQRGEPETFLPLDYLEVKPTDEKLRELKGAKLVIDVIRYEPPHIKKALQYACGNALVCDNVEDARRIAFGGHQRHKTVALDGTLFQKSGVISGGASDLKAKARRWDEKAVDKLKEKKERLTEELKEQMKAKRKEAELRQVQSQAHGLQMRLKYSQSDLEQTKTRHLALNLQEKSKLESELANFGPRINDIKRIIQSREREMKDLKEKMNQVEDEVFEEFCREIGVRNIREFEEEKVKRQNEIAKKRLEFENQKTRLGIQLDFEKNQLKEDQDKVHMWEQTVKKDENEIEKLKKEEQRHMKIIDETMAQLQDLKNQHLAKKSEVNDKNHEMEEIRKKLGGANKEMTHLQKEVTAIETKLEQKRSDRHNLLQACKMQDIKLPLSKGTMDDISQEEGSSQGEESVSGSQRTSSIYAREALIEIDYGDLCEDLKDAQAEEEIKQEMNTLQQKLNEQQSVLQRIAAPNMKAMEKLESVRDKFQETSDEFEAARKRAKKAKQAFEQIKKERFDRFNACFESVATNIDEIYKALSRNSSAQAFLGPENPEEPYLDGINYNCVAPGKRFRPMDNLSGGEKTVAALALLFAIHSYKPAPFFVLDEIDAALDNTNIGKVANYIKEQSTCNFQAIVISLKEEFYTKAESLIGVYPEQGDCVISKVLTFDLTKYPDANPNPNEQ
